Results from US20220211726A1, “UVEAL MELANOMA TREATMENT” (Katholieke Universiteit Leuven, priority 2019, published 2022).
At least one structure is not confirmed: it was looked up by name or label, or the drawing left a doubt.

Legend:
[1] = system: uveal melanoma (UM 92.1) cell line; assay: IncuCyte proliferation assay (% cell confluency); format: cell-based; conditions: melanoma cell cultures incl. UM 92.1, increasing concentrations of Doxycycline, FIG. 6
Experimental: (§1) For IncuCyte Proliferation Assays, cells were plated in 96-well plates (TPP) at the appropriate density (between 2.5×10^3, to 1.5×10^4). Cells were treated with increasing amounts of Tigecycline or Doxycycline and cultured for 72 h. Apoptotic cells were labelled with the IncuCyte Caspase 3/7 Green Apoptosis Assay Reagent (Essen BioScience). Four images per well were taken at 2-hour intervals using an IncuCyte ZOOM system (Essen BioScience). The percentage of cell confluency and fluorescent green counts indicating apoptotic cells were measured and analysed by the IncuCyte ZOOM software.

[2] = system: uveal melanoma cell line (UM92.1); assay: IncuCyte Caspase 3/7 Green apoptosis assay; format: cell-based; conditions: melanoma cell cultures, Doxycycline, in most of the cases
Experimental: as §1

## C[C@H]1c2cccc(O)c2C(=O)C2=C(O)[C@]3(O)C(=O)C(C(N)=O)=C(O)[C@@H](N(C)C)[C@@H]3[C@@H](O)[C@@H]21 [Doxycycline]
[1]
  cell growth (measured as % of cell confluency): impaired the growth of melanoma cell cultures
[2]
  activation of apoptosis (caspase activation assay): rapid (within 24 to 36 hours) and dose-dependent activation of apoptosis
